Experimental data reported in publication PMC6294507.
These are yes or no findings as the source states them, for the method shown. In cells and extracts the contact can be indirect. These calls come from enrichment with a bait or labelling near it, and not all partners need be listed. For some assays here: Where a sequence is shown, tags or fusion partners need not be part of it.

Protein sequences, listed by entry. Tags and fused reporters are not part of them. Residues count along the entry.
UniProt Q9BRJ7, residues 6-211: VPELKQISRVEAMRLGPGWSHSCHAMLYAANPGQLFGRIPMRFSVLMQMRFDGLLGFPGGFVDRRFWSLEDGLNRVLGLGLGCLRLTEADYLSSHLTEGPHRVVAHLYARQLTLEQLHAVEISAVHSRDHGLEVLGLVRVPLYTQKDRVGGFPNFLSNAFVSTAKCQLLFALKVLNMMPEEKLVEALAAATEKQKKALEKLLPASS

T1: TRAP1-eGFP (human) (UniProt Q12931)
T1 sequence: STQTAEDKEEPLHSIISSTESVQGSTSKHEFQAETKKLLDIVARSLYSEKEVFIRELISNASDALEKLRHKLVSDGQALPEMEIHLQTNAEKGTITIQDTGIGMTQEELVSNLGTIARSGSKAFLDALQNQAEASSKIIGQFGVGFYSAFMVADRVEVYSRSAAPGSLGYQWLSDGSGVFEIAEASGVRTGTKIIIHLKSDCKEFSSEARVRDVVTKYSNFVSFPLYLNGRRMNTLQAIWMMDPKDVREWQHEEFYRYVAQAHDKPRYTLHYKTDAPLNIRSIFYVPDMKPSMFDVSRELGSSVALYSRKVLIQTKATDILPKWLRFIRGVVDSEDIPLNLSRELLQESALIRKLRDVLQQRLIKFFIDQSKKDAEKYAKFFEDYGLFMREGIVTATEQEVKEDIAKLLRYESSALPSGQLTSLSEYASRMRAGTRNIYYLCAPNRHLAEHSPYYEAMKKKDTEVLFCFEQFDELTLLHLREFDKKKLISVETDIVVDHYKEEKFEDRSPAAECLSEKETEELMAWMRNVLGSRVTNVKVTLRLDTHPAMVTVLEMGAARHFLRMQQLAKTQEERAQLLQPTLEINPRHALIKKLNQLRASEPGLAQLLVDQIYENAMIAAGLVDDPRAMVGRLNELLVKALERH


target: SDOS-eGFP (human) (UniProt Q9BRJ7); test: affinity purification with mass spectrometry; eGFP-fusion proteins captured from HeLa Flp In TRex lysates on GFP-Trap agarose beads, 2 h, 4 C; lysis buffer 150 mM NaCl, 10 mM Tris-HCl pH 7.5, 1% Triton X-100, 5 mM MgCl2, 5 mM DTT; RNase A during the second wash; label-free quantitative proteomics against unfused eGFP

| binding | Binder |
| --- | --- |
| binds | Heat shock protein 75 kDa, mitochondrial (endogenous TRAP1) (protein, UniProt Q12931 60-704) STQTAEDKEEPLHSIISSTESVQGSTSKHEFQAETKKLLDIVARSLYSEKEVFIRELISNASDALEKLRHKLVSDGQALPEMEIHLQTNAEKGTITIQDTGIGMTQEELVSNLGTIARSGSKAFLDALQNQAEASSKIIGQFGVGFYSAFMVADRVEVYSRSAAPGSLGYQWLSDGSGVFEIAEASGVRTGTKIIIHLKSDCKEFSSEARVRDVVTKYSNFVSFPLYLNGRRMNTLQAIWMMDPKDVREWQHEEFYRYVAQAHDKPRYTLHYKTDAPLNIRSIFYVPDMKPSMFDVSRELGSSVALYSRKVLIQTKATDILPKWLRFIRGVVDSEDIPLNLSRELLQESALIRKLRDVLQQRLIKFFIDQSKKDAEKYAKFFEDYGLFMREGIVTATEQEVKEDIAKLLRYESSALPSGQLTSLSEYASRMRAGTRNIYYLCAPNRHLAEHSPYYEAMKKKDTEVLFCFEQFDELTLLHLREFDKKKLISVETDIVVDHYKEEKFEDRSPAAECLSEKETEELMAWMRNVLGSRVTNVKVTLRLDTHPAMVTVLEMGAARHFLRMQQLAKTQEERAQLLQPTLEINPRHALIKKLNQLRASEPGLAQLLVDQIYENAMIAAGLVDDPRAMVGRLNELLVKALERH |
| binds | Mitochondrial dicarboxylate carrier (protein, UniProt Q9UBX3 1-287) MAAEARVSRWYFGGLASCGAACCTHPLDLLKVHLQTQQEVKLRMTGMALRVVRTDGILALYSGLSASLCRQMTYSLTRFAIYETVRDRVAKGSQGPLPFHEKVLLGSVSGLAGGFVGTPADLVNVRMQNDVKLPQGQRRNYAHALDGLYRVAREEGLRRLFSGATMASSRGALVTVGQLSCYDQAKQLVLSTGYLSDNIFTHFVASFIAGGCATFLCQPLDVLKTRLMNSKGEYQGVFHCAVETAKLGPLAFYKGLVPAGIRLIPHTVLTFVFLEQLRKNFGIKVPS |
| binds | Serine/threonine-protein phosphatase 6 regulatory ankyrin repeat subunit A (protein, UniProt O15084 1-1053) MAFLKLRDQPSLVQAIFNGDPDEVRALIFKKEDVNFQDNEKRTPLHAAAYLGDAEIIELLILSGARVNAKDSKWLTPLHRAVASCSEEAVQVLLKHSADVNARDKNWQTPLHIAAANKAVKCAEALVPLLSNVNVSDRAGRTALHHAAFSGHGEMVKLLLSRGANINAFDKKDRRAIHWAAYMGHIEVVKLLVSHGAEVTCKDKKSYTPLHAAASSGMISVVKYLLDLGVDMNEPNAYGNTPLHVACYNGQDVVVNELIDCGAIVNQKNEKGFTPLHFAAASTHGALCLELLVGNGADVNMKSKDGKTPLHMTALHGRFSRSQTIIQSGAVIDCEDKNGNTPLHIAARYGHELLINTLITSGADTAKRGIHGMFPLHLAALSGFSDCCRKLLSSGFDIDTPDDFGRTCLHAAAAGGNLECLNLLLNTGADFNKKDKFGRSPLHYAAANCNYQCLFALVGSGASVNDLDERGCTPLHYAATSDTDGKCLEYLLRNDANPGIRDKQGYNAVHYSAAYGHRLCLQLIASETPLDVLMETSGTDMLSDSDNRATISPLHLAAYHGHHQALEVLVQSLLDLDVRNSSGRTPLDLAAFKGHVECVDVLINQGASILVKDYILKRTPIHAAATNGHSECLRLLIGNAEPQNAVDIQDGNGQTPLMLSVLNGHTDCVYSLLNKGANVDAKDKWGRTALHRGAVTGHEECVDALLQHGAKCLLRDSRGRTPIHLSAACGHIGVLGALLQSAASMDANPATADNHGYTALHWACYNGHETCVELLLEQEVFQKTEGNAFSPLHCAVINDNEGAAEMLIDTLGASIVNATDSKGRTPLHAAAFTDHVECLQLLLSHNAQVNSVDSTGKTPLMMAAENGQTNTVEMLVSSASAELTLQDNSKNTALHLACSKGHETSALLILEKITDRNLINATNAALQTPLHVAARNGLTMVVQELLGKGASVLAVDENGYTPALACAPNKDVADCLALILATMMPVSSSSPLSSLTFNAINRYTNTSKTVSFEALPIMRNEPSSYCSFNNIGGEQEYLYTDVDELNDSDSETY |
| binds | Monocarboxylate transporter 4 (protein, UniProt O15427 1-465) MGGAVVDEGPTGVKAPDGGWGWAVLFGCFVITGFSYAFPKAVSVFFKELIQEFGIGYSDTAWISSILLAMLYGTGPLCSVCVNRFGCRPVMLVGGLFASLGMVAASFCRSIIQVYLTTGVITGLGLALNFQPSLIMLNRYFSKRRPMANGLAAAGSPVFLCALSPLGQLLQDRYGWRGGFLILGGLLLNCCVCAALMRPLVVTAQPGSGPPRPSRRLLDLSVFRDRGFVLYAVAASVMVLGLFVPPVFVVSYAKDLGVPDTKAAFLLTILGFIDIFARPAAGFVAGLGKVRPYSVYLFSFSMFFNGLADLAGSTAGDYGGLVVFCIFFGISYGMVGALQFEVLMAIVGTHKFSSAIGLVLLMEAVAVLVGPPSGGKLLDATHVYMYVFILAGAEVLTSSLILLLGNFFCIRKKPKEPQPEVAAAEEEKLHKPPADSGVDLREVEHFLKAEPEKNGEVVHTPETSV |
| binds | T-complex protein 1 subunit beta (protein, UniProt P78371 1-535) MASLSLAPVNIFKAGADEERAETARLTSFIGAIAIGDLVKSTLGPKGMDKILLSSGRDASLMVTNDGATILKNIGVDNPAAKVLVDMSRVQDDEVGDGTTSVTVLAAELLREAESLIAKKIHPQTIIAGWREATKAAREALLSSAVDHGSDEVKFRQDLMNIAGTTLSSKLLTHHKDHFTKLAVEAVLRLKGSGNLEAIHIIKKLGGSLADSYLDEGFLLDKKIGVNQPKRIENAKILIANTGMDTDKIKIFGSRVRVDSTAKVAEIEHAEKEKMKEKVERILKHGINCFINRQLIYNYPEQLFGAAGVMAIEHADFAGVERLALVTGGEIASTFDHPELVKLGSCKLIEEVMIGEDKLIHFSGVALGEACTIVLRGATQQILDEAERSLHDALCVLAQTVKDSRTVYGGGCSEMLMAHAVTQLANRTPGKEAVAMESYAKALRMLPTIIADNAGYDSADLVAQLRAAHSEGNTTAGLDMREGTIGDMAILGITESFQVKRQVLLSAAEAAEVILRVDNIIKAAPRKRVPDHHPC |
| binds | Serine/threonine-protein phosphatase 6 regulatory subunit 3 (protein, UniProt Q5H9R7 1-873) MFWKFDLHSSSHIDTLLEREDVTLKELMDEEDVLQECKAQNRKLIEFLLKAECLEDLVSFIIEEPPQDMDEKIRYKYPNISCELLTSDVSQMNDRLGEDESLLMKLYSFLLNDSPLNPLLASFFSKVLSILISRKPEQIVDFLKKKHDFVDLIIKHIGTSAIMDLLLRLLTCIEPPQPRQDVLNWLNEEKIIQRLVEIVHPSQEEDRHSNASQSLCEIVRLSRDQMLQIQNSTEPDPLLATLEKQEIIEQLLSNIFHKEKNESAIVSAIQILLTLLETRRPTFEGHIEICPPGMSHSACSVNKSVLEAIRGRLGSFHELLLEPPKKSVMKTTWGVLDPPVGNTRLNVIRLISSLLQTNTSSINGDLMELNSIGVILNMFFKYTWNNFLHTQVEICIALILASPFENTENATITDQDSTGDNLLLKHLFQKCQLIERILEAWEMNEKKQAEGGRRHGYMGHLTRIANCIVHSTDKGPNSALVQQLIKDLPDEVRERWETFCTSSLGETNKRNTVDLVTTCHIHSSSDDEIDFKETGFSQDSSLQQAFSDYQMQQMTSNFIDQFGFNDEKFADQDDIGNVSFDRVSDINFTLNTNESGNIALFEACCKERIQQFDDGGSDEEDIWEEKHIAFTPESQRRSSSGSTDSEESTDSEEEDGAKQDLFEPSSANTEDKMEVDLSEPPNWSANFDVPMETTHGAPLDSVGSDVWSTEEPMPTKETGWASFSEFTSSLSTKDSLRSNSPVEMETSTEPMDPLTPSAAALAVQPEAAGSVAMEASSDGEEDAESTDKVTETVMNGGMKETLSLTVDAKTETAVFKSEEGKLSTSQDAACKDAEECPETAEAKCAAPRPPSSSPEQRTGQPSAPGDTSVNGPV |
| binds | Heterogeneous nuclear ribonucleoprotein H3 (protein, UniProt P31942 1-346) MDWVMKHNGPNDASDGTVRLRGLPFGCSKEEIVQFFQGLEIVPNGITLTMDYQGRSTGEAFVQFASKEIAENALGKHKERIGHRYIEIFRSSRSEIKGFYDPPRRLLGQRPGPYDRPIGGRGGYYGAGRGSMYDRMRRGGDGYDGGYGGFDDYGGYNNYGYGNDGFDDRMRDGRGMGGHGYGGAGDASSGFHGGHFVHMRGLPFRATENDIANFFSPLNPIRVHIDIGADGRATGEADVEFVTHEDAVAAMSKDKNNMQHRYIELFLNSTPGGGSGMGGSGMGGYGRDGMDNQGGYGSVGRMGMGNNYSGGYGTPDGLGGYGRGGGGSGGYYGQGGMSGGGWRGMY |

target: T1, TRAP1-eGFP (human); test: as above

| binding | Binder |
| --- | --- |
| binds | ATP-binding cassette sub-family F member 2 (protein, UniProt Q9UG63 1-623) MPSDLAKKKAAKKKEAAKARQRPRKGHEENGDVVTEPQVAEKNEANGRETTEVDLLTKELEDFEMKKAAARAVTGVLASHPNSTDVHIINLSLTFHGQELLSDTKLELNSGRRYGLIGLNGIGKSMLLSAIGKREVPIPEHIDIYHLTREMPPSDKTPLHCVMEVDTERAMLEKEAERLAHEDAECEKLMELYERLEELDADKAEMRASRILHGLGFTPAMQRKKLKDFSGGWRMRVALARALFIRPFMLLLDEPTNHLDLDACVWLEEELKTFKRILVLVSHSQDFLNGVCTNIIHMHNKKLKYYTGNYDQYVKTRLELEENQMKRFHWEQDQIAHMKNYIARFGHGSAKLARQAQSKEKTLQKMMASGLTERVVSDKTLSFYFPPCGKIPPPVIMVQNVSFKYTKDGPCIYNNLEFGIDLDTRVALVGPNGAGKSTLLKLLTGELLPTDGMIRKHSHVKIGRYHQHLQEQLDLDLSPLEYMMKCYPEIKEKEEMRKIIGRYGLTGKQQVSPIRNLSDGQKCRVCLAWLAWQNPHMLFLDEPTNHLDIETIDALADAINEFEGGMMLVSHDFRLIQQVAQEIWVCEKQTITKWPGDILAYKEHLKSKLVDEEPQLTKRTHNV |
